Source: publication PMC3630190
No constants are given. Whether binding was seen depends on the method and setting. Binding seen in cells or lysates may run through a third protein. Tags and fused reporters may be left off the sequences shown.

Target: β-tubulin (mouse (endogenous in C3H10T1/2))
Assay: co-IP; 100 µg whole cell extract of transfected C3H10T1/2 cells (50 mM Tris/HCl pH 8.0, 120 mM NaCl, 0.5% NP-40, 1 mM EDTA); endogenous acetylated tubulin, Smo or β-tubulin immunoprecipitated overnight at 4°C with antibody and Protein A/G+ or G+ agarose; tagged RGS protein detected by α-FLAG or α-HA immunoblot

Row | Binder | binding
1 | FL-hRGS5 (human Regulator of G-Protein Signaling 5 with an N-terminal FLAG epitope tag) (protein, UniProt O15539 1-181) MCKGLAALPHSCLERAKEIKIKLGILLQKPDSVGDLVIPYNEKPEKPAKTQKTSLDEALQWRDSLDKLLQNNYGLASFKSFLKSEFSEENLEFWIACEDYKKIKSPAKMAEKAKQIYEEFIQTEAPKEVNIDHFTKDITMKNLVEPSLSSFDMAQKRIHALMEKDSLPRFVRSEFYQELIK | no binding
2 | hRGS5-FL (human Regulator of G-Protein Signaling 5 with a C-terminal FLAG epitope tag) (protein, UniProt O15539 1-181) MCKGLAALPHSCLERAKEIKIKLGILLQKPDSVGDLVIPYNEKPEKPAKTQKTSLDEALQWRDSLDKLLQNNYGLASFKSFLKSEFSEENLEFWIACEDYKKIKSPAKMAEKAKQIYEEFIQTEAPKEVNIDHFTKDITMKNLVEPSLSSFDMAQKRIHALMEKDSLPRFVRSEFYQELIK | no binding
